Source: US20220257722A1, “COMPOSITIONS AND METHODS OF TREATING AND PREVENTING SYSTEMIC COMPLICATIONS OF ACUTE ILLNESS” (United States Government As Represented By The Department …, priority 2019, published 2022)
At least one structure is not confirmed: it was looked up by name or label, or the drawing left a doubt.

Test system: rat jejunal mucosa
Assay: LPS mucosal-to-serosal transport in Ussing-chambered rat jejunal mucosa (LAL test)
Assay type: cell-based
Procedure: Short-circuit current measurements in Ussing chambered preparations. Mucosa-submucosa preparations were prepared from the mid-jejunum (˜20 cm from the pyloric ring) by muscle stripping using fine forceps under a stereomicroscope. Two or four preparations were prepared from one animal. The tissue was then mounted between two hemi-sliders with an aperture=0.3 cm^2 (Physiologic Instruments, San Diego, Calif., USA). Chambers were bathed with serosal and luminal bathing solutions in a volume of 4 ml each, maintained at 37° C. using a water recirculating heating system. The serosal Krebs-Ringer solution contained (in mM) NaCl, 117; KCl, 4.7; MgCl2, 1.2; NaH2PO4, 1.2; CaCl2, 2.5; NaHCO3, 25; glucose, 11; and bubbled with 95% O2-5% CO2 to maintain pH at 7.4. The luminal bathing solution contained NaCl, 136; KCl, 2.6; CaCl2, 1.8; HEPES, 10 (pH 7.0); mannitol, 11; and bubbled with 100% O2. […] Short-circuit current (Isc) was continuously measured with tissue conductance (Gt) and TEER (Ω·cm^2) determined every 20 sec in order to assess the tissue integrity during the LPS and lipid exposure. The current was recorded by the DataQ system (Physiologic Instruments). […]
LPS movement from mucosal to serosal solution. LPS movement m-to-s was assessed using a LAL test kit (Pierce Chromogenic Endotoxin Quant Kit, Pierce Biotechnology, Rockford, Ill., USA), which eliminates non-specific detection of (1,3)-β-D-glucan, then reduces false-positive LPS measurements. […] LPS content in the serosal solutions was measured with the LAL test according to the manufacturer's protocol. The value of background at t=0 min was subtracted and the serosal LPS appearance was expressed as Δ[LPS] […] Serosal FITC-LPS content was assessed by FITC fluorescence intensity measurement using a multi-mode microplate reader (Synergy-2, BioTek Instruments, Inc., Winooski, Vt., USA). To detect macromolecule m-to-s movement across the mucosa, FD4 (0.1 mM) was applied into the mucosal bath and serosal FD4 content was assessed by FITC fluorescence intensity measurement. […]

[1] = inhibitor serosal before GLP-2 + NVP-728

Compound: Nc1ncnc2c1c(-c1cccc(OCc3ccccc3)c1)cn2[C@H]1C[C@@H](CN2CCC2)C1 [NVP-AEW-541]
- inhibitory effect of GLP-2 on LPS transport during OA/TCA exposure (inhibitor serosal 5 min before GLP-2 100 nM + NVP-728 10 μM): abolished
- amount of LPS transport after addition of OA/TCA, in presence of GLP-2 + NVP-728 [1]: further increased
- amount of LPS transport at t=15 min (prior to OA/TCA exposure), in presence of GLP-2 + NVP-728 [1]: increased
